Source: publication PMC6138439
These are yes or no findings as the source states them, for the method shown. Binding seen in cells or lysates may run through a third protein. Some results given as binding are weak or reduced against the parent protein; the word gives no strength. Tags and fused reporters may be left off the sequences shown.

Chains of the proteins cited; added tags and fusions are not shown.
UniProt Q9UI95: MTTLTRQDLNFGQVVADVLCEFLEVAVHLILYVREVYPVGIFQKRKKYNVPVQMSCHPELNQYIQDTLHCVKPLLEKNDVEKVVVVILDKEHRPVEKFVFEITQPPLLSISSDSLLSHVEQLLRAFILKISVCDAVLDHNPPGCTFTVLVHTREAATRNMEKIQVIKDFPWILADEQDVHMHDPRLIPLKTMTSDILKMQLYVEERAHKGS

T1: Flag-SHLD2 (human) (UniProt Q86V20)
T1 sequence: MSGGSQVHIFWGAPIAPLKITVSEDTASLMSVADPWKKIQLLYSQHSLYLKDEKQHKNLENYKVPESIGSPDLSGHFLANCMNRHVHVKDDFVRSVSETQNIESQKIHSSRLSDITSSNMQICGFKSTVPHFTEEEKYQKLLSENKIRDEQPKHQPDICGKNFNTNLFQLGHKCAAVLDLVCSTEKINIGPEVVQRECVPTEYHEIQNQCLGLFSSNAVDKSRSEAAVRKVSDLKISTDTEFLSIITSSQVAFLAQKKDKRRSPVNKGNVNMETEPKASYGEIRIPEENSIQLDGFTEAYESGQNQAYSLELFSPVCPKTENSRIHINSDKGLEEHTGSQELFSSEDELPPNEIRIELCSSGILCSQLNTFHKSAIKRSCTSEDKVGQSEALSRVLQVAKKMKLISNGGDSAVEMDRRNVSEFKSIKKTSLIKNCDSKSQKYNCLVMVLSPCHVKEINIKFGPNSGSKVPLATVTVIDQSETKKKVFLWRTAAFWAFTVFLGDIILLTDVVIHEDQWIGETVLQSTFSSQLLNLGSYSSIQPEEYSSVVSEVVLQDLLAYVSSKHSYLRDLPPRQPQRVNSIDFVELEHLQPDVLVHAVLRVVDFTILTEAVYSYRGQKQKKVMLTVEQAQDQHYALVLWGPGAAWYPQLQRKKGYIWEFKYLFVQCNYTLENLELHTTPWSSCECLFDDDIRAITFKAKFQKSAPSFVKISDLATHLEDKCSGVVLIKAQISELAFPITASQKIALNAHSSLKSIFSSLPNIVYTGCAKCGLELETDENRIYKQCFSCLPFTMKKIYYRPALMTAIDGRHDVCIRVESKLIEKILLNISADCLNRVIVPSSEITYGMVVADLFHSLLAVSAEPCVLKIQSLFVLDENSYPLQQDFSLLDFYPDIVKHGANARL


Legend:
Flag-REV7 (human) = Flag-REV7 (human) (UniProt Q9UI95); assay: co-IP; HEK293T co-transfected with Flag- and GFP-tagged vectors; DMSO or 10 uM ATM inhibitor KU-60019 1 h before irradiation (10 Gy); lysis in 50 mM Tris, 300 mM NaCl, 1 mM EDTA, 1% Triton X-100; nuclear extracts with benzonase; anti-Flag (M2) resin, 4 C, 2 h; immunoblot for GFP
Flag-SHLD2 (human) = target: T1, Flag-SHLD2 (human); assay: as above

| binding (Flag-REV7 (human)) | binding (Flag-SHLD2 (human)) | Binder |
| --- | --- | --- |
| binds | – | GFP-SHLD2 (protein, UniProt Q86V20-2 1-904) MSGGSQVHIFWGAPIAPLKITVSEDTASLMSVADPWKKIQLLYSQHSLYLKDEKQHKNLENYKVPESIGSPDLSGHFLANCMNRHVHVKDDFVRSVSETQNIESQKIHSSRLSDITSSNMQICGFKSTVPHFTEEEKYQKLLSENKIRDEQPKHQPDICGKNFNTNLFQLGHKCAAVLDLVCSTEKINIGPEVVQRECVPTEYHEIQNQCLGLFSSNAVDKSRSEAAVRKVSDLKISTDTEFLSIITSSQVAFLAQKKDKRRSPVNKGNVNMETEPKASYGEIRIPEENSIQLDGFTEAYESGQNQAYSLELFSPVCPKTENSRIHINSDKGLEEHTGSQELFSSEDELPPNEIRIELCSSGILCSQLNTFHKSAIKRSCTSEDKVGQSEALSRVLQVAKKMKLISNGGDSAVEMDRRNVSEFKSIKKTSLIKNCDSKSQKYNCLVMVLSPCHVKEINIKFGPNSGSKVPLATVTVIDQSETKKKVFLWRTAAFWAFTVFLGDIILLTDVVIHEDQWIGETVLQSTFSSQLLNLGSYSSIQPEEYSSVVSEVVLQDLLAYVSSKHSYLRDLPPRQPQRVNSIDFVELEHLQPDVLVHAVLRVVDFTILTEAVYSYRGQKQKKVMLTVEQAQDQHYALVLWGPGAAWYPQLQRKKGYIWEFKYLFVQCNYTLENLELHTTPWSSCECLFDDDIRAITFKAKFQKSAPSFVKISDLATHLEDKCSGVVLIKAQISELAFPITASQKIALNAHSSLKSIFSSLPNIVYTGCAKCGLELETDENRIYKQCFSCLPFTMKKIYYRPALMTAIDGRHDVCIRVESKLIEKILLNISADCLNRVIVPSSEITYGMVVADLFHSLLAVSAEPCVLKIQSLFVLDENSYPLQQDFSLLDFYPDIVKHGANARL |
| binds | binds | GFP-SHLD1 (protein, UniProt Q8IYI0 1-205) MAARDATSGSLSEESSALDLPSACDIRDYVLQGPSQEANSEAFSSLEFHSFPYSSDVDPDTSNLNIEQNNSWTAENFWLDPAVKGQSEKEEDDGLRKSLDRFYEMFGHPQPGSANSLSASVCKCLSQKITQLRGQESQKYALRSFQMARVIFNRDGCSVLQRHSRDTHFYPLEEGSTSLDDEKPNPGLSKDITHFLLQQNVMKDL |
